From US9757378B2, “Methods to modulate acute myeloid leukemia stem/progenitor cell expansion and/or differentiation” (UNIVERSITE DE MONTREAL, priority 2013, dated 2017)
Some results were stated once for a whole list of compounds, not compound by compound. For at least one compound, name, drawing or mass did not settle the structure.

Tested on: AML 05H163 cells
Experiment: 5-day culture of AML 05H163 with AhR suppressors plus UM729
Assay type: cell-based, human
Conditions: UM729 added to the compound; 5 days; 86% on day 0

Compound	maintenance of the CD34+CD15− phenotype, % of cultured 05H163 cells [%]
O=C(Nc1ccc2c(c1)OCCO2)c1sc2ccccc2c1Cl [UM0045609, 3-chloro-N-(2,3-dihydro-1,4-benzodioxin-6-yl)-1-benzithiophene-2-carboxamide]	≥ 85
CNC(=O)c1cc2c(cn1)[nH]c1ccccc12 [UM0119840, N-Methyl-beta-carboline-3-carboxamide]	≥ 85
COc1ccc(-c2coc3c(O)c(OC)ccc3c2=O)cc1 [UM0121179, Retusin 7-Methylether]	≥ 85
